From the supplement of paper PMC12823440, “Inhibitors supercharge kinase turnover through native proteolytic circuits” (Nature, 2025) come the findings set out here.

Chains of the proteins cited; added tags and fusions are not shown. Lines headed by an entry give the natural chain unless they say otherwise; changes in a name come on top.
UniProt P07949, whole entry, looked up: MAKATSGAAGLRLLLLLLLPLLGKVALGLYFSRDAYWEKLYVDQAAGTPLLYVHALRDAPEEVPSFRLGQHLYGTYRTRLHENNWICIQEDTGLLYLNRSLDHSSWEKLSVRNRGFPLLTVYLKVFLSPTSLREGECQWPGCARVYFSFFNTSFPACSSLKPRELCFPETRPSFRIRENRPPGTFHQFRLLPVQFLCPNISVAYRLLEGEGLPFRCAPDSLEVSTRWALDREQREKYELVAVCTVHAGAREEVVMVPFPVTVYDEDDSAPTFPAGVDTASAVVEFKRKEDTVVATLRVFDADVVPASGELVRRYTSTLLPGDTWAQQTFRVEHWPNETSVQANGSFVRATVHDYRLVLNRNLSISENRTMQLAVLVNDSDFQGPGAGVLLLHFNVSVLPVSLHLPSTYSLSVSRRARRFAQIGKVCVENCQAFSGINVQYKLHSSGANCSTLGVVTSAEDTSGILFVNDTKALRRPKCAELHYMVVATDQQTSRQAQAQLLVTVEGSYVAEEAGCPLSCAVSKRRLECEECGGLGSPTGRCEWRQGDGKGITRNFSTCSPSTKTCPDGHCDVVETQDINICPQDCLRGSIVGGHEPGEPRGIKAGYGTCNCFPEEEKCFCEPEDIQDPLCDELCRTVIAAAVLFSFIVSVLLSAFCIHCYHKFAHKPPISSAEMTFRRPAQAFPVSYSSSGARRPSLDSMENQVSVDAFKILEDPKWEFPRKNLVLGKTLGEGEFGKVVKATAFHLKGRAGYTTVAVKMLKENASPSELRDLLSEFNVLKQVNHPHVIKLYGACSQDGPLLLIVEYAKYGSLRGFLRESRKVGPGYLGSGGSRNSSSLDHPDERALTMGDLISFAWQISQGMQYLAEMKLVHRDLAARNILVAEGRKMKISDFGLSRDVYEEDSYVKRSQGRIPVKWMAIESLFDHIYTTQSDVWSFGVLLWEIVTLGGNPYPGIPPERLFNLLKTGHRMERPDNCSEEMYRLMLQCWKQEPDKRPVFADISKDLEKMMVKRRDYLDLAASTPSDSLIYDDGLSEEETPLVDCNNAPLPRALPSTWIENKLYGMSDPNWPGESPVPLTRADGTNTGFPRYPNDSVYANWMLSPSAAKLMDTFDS
UniProt Q9BRS2: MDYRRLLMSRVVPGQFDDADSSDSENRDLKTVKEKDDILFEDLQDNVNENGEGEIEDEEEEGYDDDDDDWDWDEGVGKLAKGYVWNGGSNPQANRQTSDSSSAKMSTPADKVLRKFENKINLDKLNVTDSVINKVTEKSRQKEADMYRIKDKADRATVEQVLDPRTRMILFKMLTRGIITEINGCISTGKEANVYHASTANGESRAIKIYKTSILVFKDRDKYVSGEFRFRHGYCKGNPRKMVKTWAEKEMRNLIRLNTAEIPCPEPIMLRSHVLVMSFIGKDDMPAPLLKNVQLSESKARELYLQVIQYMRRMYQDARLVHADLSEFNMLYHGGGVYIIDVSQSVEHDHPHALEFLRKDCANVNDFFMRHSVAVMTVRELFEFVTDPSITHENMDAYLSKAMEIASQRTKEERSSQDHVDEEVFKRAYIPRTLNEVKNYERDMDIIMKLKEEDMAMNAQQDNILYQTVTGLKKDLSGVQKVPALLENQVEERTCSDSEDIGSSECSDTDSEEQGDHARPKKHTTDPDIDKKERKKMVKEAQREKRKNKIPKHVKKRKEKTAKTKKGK
UniProt Q13546: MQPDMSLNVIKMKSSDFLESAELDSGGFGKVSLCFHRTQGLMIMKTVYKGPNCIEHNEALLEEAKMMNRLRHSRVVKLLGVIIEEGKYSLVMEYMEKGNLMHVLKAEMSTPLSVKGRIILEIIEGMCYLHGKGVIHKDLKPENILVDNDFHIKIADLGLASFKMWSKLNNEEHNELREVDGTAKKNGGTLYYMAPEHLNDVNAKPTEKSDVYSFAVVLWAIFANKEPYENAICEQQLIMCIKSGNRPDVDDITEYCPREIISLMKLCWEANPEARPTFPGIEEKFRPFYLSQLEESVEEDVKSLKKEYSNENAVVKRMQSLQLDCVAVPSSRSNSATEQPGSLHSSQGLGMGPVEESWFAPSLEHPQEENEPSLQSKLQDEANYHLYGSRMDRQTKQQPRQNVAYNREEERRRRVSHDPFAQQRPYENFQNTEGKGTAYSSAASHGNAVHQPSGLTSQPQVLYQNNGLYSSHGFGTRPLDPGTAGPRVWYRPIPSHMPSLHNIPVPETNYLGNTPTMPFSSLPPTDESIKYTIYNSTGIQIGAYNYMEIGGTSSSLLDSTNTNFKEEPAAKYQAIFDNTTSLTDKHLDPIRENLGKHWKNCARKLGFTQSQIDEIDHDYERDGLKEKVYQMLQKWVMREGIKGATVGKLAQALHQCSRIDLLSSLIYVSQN
UniProt Q01974, whole entry: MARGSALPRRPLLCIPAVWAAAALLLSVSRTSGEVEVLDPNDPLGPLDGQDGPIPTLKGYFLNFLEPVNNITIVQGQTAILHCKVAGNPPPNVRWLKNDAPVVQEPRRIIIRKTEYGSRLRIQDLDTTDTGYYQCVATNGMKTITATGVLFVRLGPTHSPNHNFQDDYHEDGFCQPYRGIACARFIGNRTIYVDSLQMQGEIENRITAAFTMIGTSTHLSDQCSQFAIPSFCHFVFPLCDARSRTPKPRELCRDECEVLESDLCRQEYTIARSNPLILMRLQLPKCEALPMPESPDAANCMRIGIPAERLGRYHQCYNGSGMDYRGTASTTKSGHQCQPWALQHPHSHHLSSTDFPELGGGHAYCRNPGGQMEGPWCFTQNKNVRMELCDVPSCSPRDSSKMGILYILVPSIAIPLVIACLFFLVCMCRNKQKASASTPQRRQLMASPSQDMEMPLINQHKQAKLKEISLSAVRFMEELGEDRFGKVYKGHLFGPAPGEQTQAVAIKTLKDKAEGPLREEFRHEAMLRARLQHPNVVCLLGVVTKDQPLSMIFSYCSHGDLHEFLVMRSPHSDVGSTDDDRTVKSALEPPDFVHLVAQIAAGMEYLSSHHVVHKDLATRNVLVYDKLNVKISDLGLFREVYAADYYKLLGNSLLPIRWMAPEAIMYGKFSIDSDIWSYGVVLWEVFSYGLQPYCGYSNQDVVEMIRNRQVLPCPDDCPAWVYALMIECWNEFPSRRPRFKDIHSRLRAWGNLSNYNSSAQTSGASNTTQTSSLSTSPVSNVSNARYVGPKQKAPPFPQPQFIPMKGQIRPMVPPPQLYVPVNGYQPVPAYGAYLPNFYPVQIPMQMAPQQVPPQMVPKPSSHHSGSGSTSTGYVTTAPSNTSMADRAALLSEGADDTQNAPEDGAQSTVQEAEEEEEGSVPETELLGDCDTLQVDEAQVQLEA
UniProt Q15418, whole entry: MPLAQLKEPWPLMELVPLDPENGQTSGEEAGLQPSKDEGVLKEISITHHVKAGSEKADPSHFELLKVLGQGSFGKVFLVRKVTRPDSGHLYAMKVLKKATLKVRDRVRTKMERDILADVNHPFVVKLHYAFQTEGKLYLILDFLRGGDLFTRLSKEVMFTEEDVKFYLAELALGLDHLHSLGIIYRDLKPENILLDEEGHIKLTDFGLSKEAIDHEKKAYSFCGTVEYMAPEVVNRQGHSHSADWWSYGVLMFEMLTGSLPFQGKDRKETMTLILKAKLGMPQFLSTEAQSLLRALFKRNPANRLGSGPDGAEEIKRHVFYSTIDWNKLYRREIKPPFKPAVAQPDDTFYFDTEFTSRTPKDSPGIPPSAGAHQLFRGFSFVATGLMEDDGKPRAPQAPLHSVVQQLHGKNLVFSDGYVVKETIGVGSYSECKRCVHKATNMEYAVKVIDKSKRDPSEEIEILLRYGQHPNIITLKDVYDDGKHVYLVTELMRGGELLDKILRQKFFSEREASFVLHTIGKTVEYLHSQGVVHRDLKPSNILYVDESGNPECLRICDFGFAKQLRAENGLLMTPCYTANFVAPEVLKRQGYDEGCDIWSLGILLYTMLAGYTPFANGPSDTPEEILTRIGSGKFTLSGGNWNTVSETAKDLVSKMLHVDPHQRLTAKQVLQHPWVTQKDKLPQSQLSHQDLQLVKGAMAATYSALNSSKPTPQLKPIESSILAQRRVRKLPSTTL
UniProt Q9NYA1, whole entry: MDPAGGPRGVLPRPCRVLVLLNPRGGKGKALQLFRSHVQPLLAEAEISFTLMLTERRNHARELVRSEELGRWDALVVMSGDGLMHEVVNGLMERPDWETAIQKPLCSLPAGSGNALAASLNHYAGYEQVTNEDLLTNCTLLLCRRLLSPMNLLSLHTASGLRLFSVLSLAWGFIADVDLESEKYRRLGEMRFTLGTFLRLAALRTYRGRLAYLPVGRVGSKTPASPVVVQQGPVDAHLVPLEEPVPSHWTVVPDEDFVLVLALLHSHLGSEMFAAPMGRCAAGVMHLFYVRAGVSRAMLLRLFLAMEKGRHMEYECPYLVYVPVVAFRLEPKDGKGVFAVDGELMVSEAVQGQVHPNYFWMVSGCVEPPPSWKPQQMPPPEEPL
UniProt Q9Y6E0: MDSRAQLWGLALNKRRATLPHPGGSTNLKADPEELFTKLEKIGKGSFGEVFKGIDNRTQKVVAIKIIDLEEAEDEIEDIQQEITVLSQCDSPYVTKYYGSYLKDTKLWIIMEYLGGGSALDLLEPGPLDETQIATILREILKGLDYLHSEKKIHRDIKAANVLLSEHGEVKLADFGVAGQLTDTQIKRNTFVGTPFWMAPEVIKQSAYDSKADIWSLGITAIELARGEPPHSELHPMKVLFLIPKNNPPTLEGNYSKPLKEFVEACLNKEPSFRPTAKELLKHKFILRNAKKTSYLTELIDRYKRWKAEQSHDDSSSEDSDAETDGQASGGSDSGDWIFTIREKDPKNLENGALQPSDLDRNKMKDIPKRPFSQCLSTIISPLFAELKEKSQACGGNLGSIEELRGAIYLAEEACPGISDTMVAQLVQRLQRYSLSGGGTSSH
UniProt Q15208: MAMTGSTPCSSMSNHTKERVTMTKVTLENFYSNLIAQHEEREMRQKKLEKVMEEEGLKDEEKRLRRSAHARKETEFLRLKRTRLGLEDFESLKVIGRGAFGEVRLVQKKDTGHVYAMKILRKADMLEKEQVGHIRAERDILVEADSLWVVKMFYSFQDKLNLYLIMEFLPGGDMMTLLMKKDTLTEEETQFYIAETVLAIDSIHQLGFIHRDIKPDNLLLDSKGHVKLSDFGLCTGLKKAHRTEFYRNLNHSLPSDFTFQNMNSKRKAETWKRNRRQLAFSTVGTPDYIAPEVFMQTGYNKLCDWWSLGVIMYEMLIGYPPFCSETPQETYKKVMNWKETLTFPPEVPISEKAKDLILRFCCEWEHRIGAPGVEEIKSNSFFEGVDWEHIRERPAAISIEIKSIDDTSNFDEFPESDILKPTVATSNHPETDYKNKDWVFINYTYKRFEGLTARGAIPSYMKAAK
UniProt P42680: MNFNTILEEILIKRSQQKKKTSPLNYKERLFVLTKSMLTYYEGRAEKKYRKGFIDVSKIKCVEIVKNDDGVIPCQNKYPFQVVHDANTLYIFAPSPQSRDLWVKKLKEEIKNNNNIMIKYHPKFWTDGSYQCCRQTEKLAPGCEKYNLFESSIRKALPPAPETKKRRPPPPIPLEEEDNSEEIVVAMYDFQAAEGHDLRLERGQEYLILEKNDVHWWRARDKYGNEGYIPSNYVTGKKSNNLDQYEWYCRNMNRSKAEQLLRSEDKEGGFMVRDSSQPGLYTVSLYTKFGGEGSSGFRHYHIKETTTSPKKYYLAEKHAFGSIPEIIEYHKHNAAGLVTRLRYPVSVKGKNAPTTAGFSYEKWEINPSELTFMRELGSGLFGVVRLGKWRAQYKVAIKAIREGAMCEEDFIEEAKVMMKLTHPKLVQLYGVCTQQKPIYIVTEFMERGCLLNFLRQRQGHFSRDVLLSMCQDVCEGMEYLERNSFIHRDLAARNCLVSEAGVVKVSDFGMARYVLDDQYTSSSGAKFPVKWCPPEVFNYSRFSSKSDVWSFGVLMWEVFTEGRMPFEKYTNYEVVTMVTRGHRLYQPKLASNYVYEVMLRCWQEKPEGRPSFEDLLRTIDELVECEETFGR
UniProt Q6PHR2: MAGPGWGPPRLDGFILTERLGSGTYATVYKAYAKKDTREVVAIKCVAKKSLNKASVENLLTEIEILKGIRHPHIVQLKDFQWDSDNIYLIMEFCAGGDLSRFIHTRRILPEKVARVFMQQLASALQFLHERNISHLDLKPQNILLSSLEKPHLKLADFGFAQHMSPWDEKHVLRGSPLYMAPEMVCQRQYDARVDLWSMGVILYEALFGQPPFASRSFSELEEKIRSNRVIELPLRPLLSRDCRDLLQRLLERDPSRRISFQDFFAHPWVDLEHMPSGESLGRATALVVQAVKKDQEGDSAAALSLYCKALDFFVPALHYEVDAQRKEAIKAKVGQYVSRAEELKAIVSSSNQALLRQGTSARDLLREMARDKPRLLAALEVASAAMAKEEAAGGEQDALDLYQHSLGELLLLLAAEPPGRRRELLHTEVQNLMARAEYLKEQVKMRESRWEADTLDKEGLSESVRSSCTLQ

The other results are listed elsewhere or left out. The calls rarely recur for the same compound in another form.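 In K562 cells expressing nanoluciferase-fused kinases, luminescence was recorded at 4 h intervals between 2 and 18 h, normalized as percent of control with DMSO at 100% and a positive control at 0%. A significant (2 sigma) signal drop marks a time point as decreased. The authors' rule for a hit is not shown and takes in more than the number of time points.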

What all share (assay): number of time points (of 5) at which kinase-Nluc abundance scored as decreased, DMSO-normalised (count); higher = more persistent destabilization
Common to all, as to settings: K562; 2-18 h

Experiment [1] deals with PRKCA (UniProt P17252).
Experiment [2] concerns the target PTK2 (UniProt Q05397).
In experiment [3] the target is PTK2B (UniProt Q14289).
Experiment [4] addresses RAF1 (UniProt P04049).
For experiment [5], the target named is RAF1_S257L (clone: RAF1_mut) (UniProt P04049).
Experiment [6] concerns the target RET (UniProt P07949).
Experiment [7] concerns the target RET_M918T (clone: RET_mut) (UniProt P07949).
Experiment [8] has as its target RIOK1 (UniProt Q9BRS2).
The target of experiment [9] is RIPK1 (UniProt Q13546).
Experiment [10] has as its target RIPK2 (UniProt O43353).
In experiment [11] the target is ROR2 (UniProt Q01974).
Experiment [12] addresses RPS6KA1 (UniProt Q15418).
In experiment [13] the target is SPHK1 (UniProt Q9NYA1).
Experiment [14] has as its target SRC (UniProt P12931).
The target in experiment [15] is STK24 (UniProt Q9Y6E0).
The target in experiment [16] is STK38 (UniProt Q15208).
Experiment [17] deals with SYK (UniProt P43405).
Experiment [18] concerns the target TEC (UniProt P42680).
In experiment [19] the target is TYK2 (UniProt P29597).
The target in experiment [20] is ULK3 (UniProt Q6PHR2).

With `C=CC(=O)Nc1cccc(CNc2nc(Nc3ccc(N4CCN(C)CC4)cc3OC)ncc2Cl)c1` (10 µM), the “number of time points” value in experiment [1], in [2], in experiment [3], in experiment [4], in [5] and in experiment [6] was 0 throughout. In addition, the “number of time points” value in experiment [7], in [8], in [9], in experiment [10], in experiment [11] and in [12] was 0 throughout. For the same compound, the “number of time points” value in [13], in experiment [14], in experiment [15], in experiment [16], in [17] and in experiment [18] was 0 in each case. The “number of time points” value in [19] and in [20] was 0 each time.
On to `CC(C)(O)[C@H]1CC[C@H](Nc2ccc3ncc(-c4cccc(C(F)(F)F)c4)n3n2)CC1` (10 µM), for which the “number of time points” value in [1] amounted to 0; in [2] it was 2; in [3] it was 0; in [4], 0; in experiment [5] it was 0; in experiment [6] it was 0. Besides, the “number of time points” value in experiment [7], in experiment [8], in [9], in experiment [10], in [11] and in experiment [12] was 0 throughout. Besides, the “number of time points” value in [13], in experiment [14], in [15], in experiment [16], in experiment [17] and in experiment [18] was 0 throughout. For the same compound, the “number of time points” value in experiment [19] and in experiment [20] was 0 throughout.
As for `C=CC(=O)N1C(=O)CC(c2ccc(F)cc2)Sc2ccccc21` (stereo not drawn) [GSK-3β inhibitor 3] (10 µM), the “number of time points” value in experiment [1] was 0; in experiment [2], 1; in [3] it was 0; in [4], 0; in [5], 0; in experiment [6], 0. The “number of time points” value in experiment [7], in experiment [8], in experiment [9], in [10], in experiment [11] and in experiment [12] was 0 in each case. The “number of time points” value in experiment [13], in [14], in experiment [15], in experiment [16], in [17] and in experiment [18] was 0 each time. Moreover, the “number of time points” value in experiment [19] and in experiment [20] was 0 each time.
As for `C=CC(=O)Nc1cccc(-c2cccc3cnc(Nc4ccc(N5CCN(CCO)CC5)c(F)c4F)nc23)c1` [Olafertinib] (2.5 µM), the “number of time points” value in [1], in [2], in [3], in [4], in experiment [5] and in experiment [6] was 0 in each case. For the same compound, the “number of time points” value in experiment [7], in experiment [8], in [9], in [10], in [11] and in [12] was 0 in each case. For the same compound, the “number of time points” value in experiment [13], in experiment [14], in experiment [15], in [16], in experiment [17] and in [18] was 0 throughout. Further, the “number of time points” value in experiment [19] and in [20] was 0 each time.
On to `COc1cc2ncnc(Nc3ccc(F)c(Cl)c3)c2cc1NC(=O)/C=C/CN1CCCCC1` [Dacomitinib] (10 µM), for which the “number of time points” value in [1], in experiment [2], in [3], in experiment [4], in experiment [5] and in experiment [6] was 0 throughout. For the same compound, the “number of time points” value in experiment [7], in experiment [8], in experiment [9], in experiment [10], in [11] and in [12] was 0 throughout. For the same compound, the “number of time points” value in [13], in [14], in [15], in experiment [16], in experiment [17] and in [18] was 0 throughout. In addition, the entries for the “number of time points” value in [19] and in experiment [20] were 1 and 0, respectively.
For `COc1c(Nc2cc(C)[nH]n2)nc(Sc2ccc(S(=O)(=O)Cc3cccc([N+](=O)[O-])c3F)cc2F)nc1N1CCCCC1` [Centrinone-B] (2.5 µM), the “number of time points” value in experiment [1], in [2], in experiment [3], in experiment [4], in [5] and in [6] was 0 each time. The “number of time points” value in [7], in experiment [8], in experiment [9], in experiment [10], in experiment [11] and in experiment [12] was 0 in each case. The “number of time points” value was found to be 4 in [13]; 0 in experiment [14]; 0 in [15]; 0 in [16]; 0 in experiment [17]; 0 in [18]. Besides, the “number of time points” value in [19] and in experiment [20] was 0 throughout.
